In patent US20240209078A1:
Results are given in words; binding and its absence hold for the method and conditions named. For some of these results: Binding calls can cover weak binding; strength is not graded here.

By UniProt entry, the sequences of proteins in these tests, tags left out. Where a name states a change or a piece, a line headed by the entry shows the natural chain unless it says otherwise.
UniProt Q13421: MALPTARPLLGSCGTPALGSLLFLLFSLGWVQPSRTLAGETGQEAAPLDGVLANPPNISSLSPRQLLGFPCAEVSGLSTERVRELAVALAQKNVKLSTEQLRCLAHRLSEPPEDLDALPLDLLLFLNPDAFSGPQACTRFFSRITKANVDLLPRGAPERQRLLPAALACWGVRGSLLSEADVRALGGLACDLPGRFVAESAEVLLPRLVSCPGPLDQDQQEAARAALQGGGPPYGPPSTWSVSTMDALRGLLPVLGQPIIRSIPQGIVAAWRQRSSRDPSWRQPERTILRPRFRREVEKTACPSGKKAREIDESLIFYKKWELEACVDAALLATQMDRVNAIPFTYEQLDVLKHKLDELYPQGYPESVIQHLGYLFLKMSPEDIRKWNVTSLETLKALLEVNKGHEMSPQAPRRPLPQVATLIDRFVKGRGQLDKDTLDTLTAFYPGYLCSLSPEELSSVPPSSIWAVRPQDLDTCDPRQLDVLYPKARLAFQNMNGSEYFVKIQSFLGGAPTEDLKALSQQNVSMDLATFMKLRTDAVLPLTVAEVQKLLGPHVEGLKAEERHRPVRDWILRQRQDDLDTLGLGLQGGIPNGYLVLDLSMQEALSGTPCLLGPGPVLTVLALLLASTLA

Legend:
cyno CDH3 (cyno) = experiment: cell-based affinity, fluorescence cytometry on transfected CHO cells
[1] = biological target: human MSLN (mesothelin) (human) (UniProt Q13421); experiment: as above
cyno MSLN (cyno) = experiment: as above
[2] = biological target: human/mouse chimeric CDH3×EpC protein, D4B replaced by mouse sequence; experiment: flow cytometry on transfected CHO cells
[3] = biological target: human/mouse chimeric MSLN protein, epitope section E1 replaced by mouse sequence; experiment: flow cytometry on transfected CHO cells
[4] = biological target: human/mouse chimeric CDH3×EpC protein, D4 replaced by mouse sequence; experiment: flow cytometry on transfected CHO cells
[5] = biological target: human/mouse chimeric CDH3×EpC protein, D1 replaced by mouse sequence; experiment: flow cytometry on transfected CHO cells, 5 µg/mL
[6] = biological target: human/mouse chimeric MSLN protein, epitope section E2 replaced by mouse sequence; experiment: flow cytometry on transfected CHO cells, 5 µg/mL
[7] = biological target: human/mouse chimeric CDH3×EpC protein, D4A replaced by mouse sequence; experiment: flow cytometry on transfected CHO cells, 5 µg/mL
[8] = biological target: human/mouse chimeric CDH3×EpC protein, D2B replaced by mouse sequence; experiment: flow cytometry on transfected CHO cells, 5 µg/mL
[9] = biological target: human/mouse chimeric MSLN protein, epitope section E3 replaced by mouse sequence; experiment: flow cytometry on transfected CHO cells, 5 µg/mL
[10] = biological target: human/mouse chimeric CDH3×EpC protein, D1C replaced by mouse sequence; experiment: flow cytometry on transfected CHO cells, 5 µg/mL
[11] = biological target: human/mouse chimeric CDH3×EpC protein, D1A replaced by mouse sequence; experiment: flow cytometry on transfected CHO cells, 5 µg/mL
[12] = biological target: human/mouse chimeric CDH3×EpC protein, D2A replaced by mouse sequence; experiment: flow cytometry on transfected CHO cells, 5 µg/mL
[13] = biological target: human/mouse chimeric CDH3×EpC protein, D5B replaced by mouse sequence; experiment: flow cytometry on transfected CHO cells, 5 µg/mL
[14] = biological target: human/mouse chimeric CDH3×EpC protein, D3A replaced by mouse sequence; experiment: flow cytometry on transfected CHO cells, 5 µg/mL
[15] = biological target: human/mouse chimeric MSLN protein, epitope section E5 replaced by mouse sequence; experiment: flow cytometry on transfected CHO cells, 5 µg/mL
[16] = biological target: human/mouse chimeric CDH3×EpC protein, D1B replaced by mouse sequence; experiment: flow cytometry on transfected CHO cells, 5 µg/mL
[17] = biological target: human/mouse chimeric CDH3×EpC protein, D2C replaced by mouse sequence; experiment: flow cytometry on transfected CHO cells, 5 µg/mL
[18] = biological target: human/mouse chimeric MSLN protein, epitope section E4 replaced by mouse sequence; experiment: flow cytometry on transfected CHO cells, 5 µg/mL
[19] = biological target: human/mouse chimeric MSLN protein, epitope section E6 replaced by mouse sequence; experiment: flow cytometry on transfected CHO cells, 5 µg/mL
[20] = biological target: human/mouse chimeric CDH3×EpC protein, D5A replaced by mouse sequence; experiment: flow cytometry on transfected CHO cells, 5 µg/mL
[21] = biological target: human MSLN (mesothelin) (human) (UniProt Q13421); experiment: flow cytometry on transfected CHO cells, 5 µg/mL
[22] = biological target: human/mouse chimeric CDH3×EpC protein, D5 replaced by mouse sequence; experiment: flow cytometry on transfected CHO cells, 5 µg/mL
[23] = biological target: human/mouse chimeric CDH3×EpC protein, D3C replaced by mouse sequence; experiment: flow cytometry on transfected CHO cells, 5 µg/mL
[24] = biological target: human/mouse chimeric CDH3×EpC protein, D3B replaced by mouse sequence; experiment: flow cytometry on transfected CHO cells, 5 µg/mL
[25] = biological target: human/mouse chimeric CDH3×EpC protein, D2 replaced by mouse sequence; experiment: flow cytometry on transfected CHO cells, 5 µg/mL
[26] = biological target: human/mouse chimeric CDH3×EpC protein, D3 replaced by mouse sequence; experiment: flow cytometry on transfected CHO cells, 5 µg/mL
[27] = biological target: human/mouse chimeric CDH3×EpC protein, D4C replaced by mouse sequence; experiment: flow cytometry on transfected CHO cells, 5 µg/mL
[28] = biological target: human/mouse chimeric CDH3×EpC protein, D5C replaced by mouse sequence; experiment: flow cytometry on transfected CHO cells, 5 µg/mL

binding (cyno CDH3 (cyno))	binding [1]	binding (cyno MSLN (cyno))	binding [3]	binding [6]	binding [9]	binding [15]	binding [18]	binding [19]	binding [21]	Binder	other results
binds	binds	binds	no binding (tested: 5 µg/mL)	binds	binds	binds	binds	binds	binds	CH3 15-E11 VAG CC×I2L×G4×scFc×MS 15-B12 CC×I2L clipopt ID (SEQ ID NO 434) (bispecific antibody) QVQLVQSGAEVKKPGASVKVSCKASGYTFTNYWMNWVRQAPGQCLEWMGNIAYGVAGTNYNQKFQGRVTMTVDTSSSTAYMELSRLRSDDTAVYYCATRYFYVMDYWGQGTLVTVSSGGGGQGGGGQGGGGQDIQMTQSPSSLSASVGDRVTITCRASQDISNYLNWYQQKPGKVPKLLIYYTSRLHSGVPSRFSGSGSGTDFTLTISSLQPEDVATYYCVQYAQFPLTFGCGTKVEIKSGGGGQEVQLVESGGGLVQPGGSLKLSCAASGFTFNKYAMNWVRQAPGKGMEWVARIRSKYNNYATYYADAVKDRFTISRDDSKNTLYLQMNNLKTEDTAVYYCVRAGNFGSSYISYFAYWGQGTLVTVSSGGGGQGGGGQGGGGQQTVVTQEPSLTVSPGGTVTITCGSSTGAVTSGNYPNWIQKKPGQAPRGLIGGTKFLAPGTPARFSGSLEGGKAALTLSGVQPEDEAEYYCVLYYSNRWVFGSGTKLTVLGGGGCPPCPAPELLGGPSVFLFPPKPKDTLMISRTPEVTCVVVDVSHEEPEVKFNWYVDGVEVHNAKTKPCEEQYGSTYRCVSVLTVLHQDWLNGKEYKCKVSNKALPAPIEKTISKAKGQPREPQVYTLPPSREEMTKNQVSLTCLVKGFYPSDIAVEWESNGQPENNYKTTPPVLDSDGSFFLYSKLTVDKSRWQQGNVFSCSVMHEALHNHYTQKSLSLSPGKGGGGQGGGGQGGGGQGGGGQGGGGQGGGGQCPPCPAPELLGGPSVFLFPPKPKDTLMISRTPEVTCVVVDVSHEEPEVKFNWYVDGVEVHNAKTKPCEEQYGSTYRCVSVLTVLHQDWLNGKEYKCKVSNKALPAPIEKTISKAKGQPREPQVYTLPPSREEMTKNQVSLTCLVKGFYPSDIAVEWESNGQPENNYKTTPPVLDSDGSFFLYSKLTVDKSRWQQGNVFSCSVMHEALHNHYTQKSLSLSPGKGGGGQVQLQESGPGLVKPSETLSLTCTVSGGSISSSSYFWGWIRQPPGKCLEWIGNIYYSGSSNYNPSLKSRVTISVDTSKNQFSLKLSSVTAADTAVYYCARLPRGDRDAFDIWGQGTMVTVSSGGGGQGGGGQGGGGQDIVMTQSPSSLSASVGDRVTITCRASQGISNYLAWYQQKPGKVPKLLIYAASTLQSGVPSRFSGSGSGTDFTLTISSLQPEDFATYYCQQSYSTPFTFGCGTKVEIKSGGGGQEVQLVESGGGLVQPGGSLKLSCAASGFTFNKYAMNWVRQAPGKGMEWVARIRSKYNNYATYYADAVKDRFTISRDDSKNTLYLQMNNLKTEDTAVYYCVRAGNFGSSYISYFAYWGQGTLVTVSSGGGGQGGGGQGGGGQQTVVTQEPSLTVSPGGTVTITCGSSTGAVTSGNYPNWIQKKPGQAPRGLIGGTKFLAPGTPARFSGSLEGGKAALTLSGVQPEDEAEYYCVLYYSNRWVFGSGTKLTVL	binding [2]: no binding (tested: 5 µg/mL); binding [4]: no binding (tested: 5 µg/mL); binding [5]: binds; binding [7]: binds; binding [8]: binds; binding [10]: binds; binding [11]: binds; binding [12]: binds; binding [13]: binds; binding [14]: binds; binding [16]: binds; binding [17]: binds; binding [20]: binds; binding [22]: binds; binding [23]: binds; binding [24]: binds; binding [25]: binds; binding [26]: binds; binding [27]: binds; binding [28]: binds
binds	binds	binds	no binding (tested: 5 µg/mL)	binds	binds	binds	binds	binds	binds	CH3 15-E11 CC×I2L×G4×scFc×G4×MS 15-B12 CC×I2L_GQ (SEQ ID NO 251) (bispecific antibody) QVQLVQSGAEVKKPGASVKVSCKASGYTFTNYWMNWVRQAPGQCLEWMGNIAYGVKGTNYNQKFQGRVTMTVDTSSSTAYMELSRLRSDDTAVYYCATRYFYVMDYWGQGTLVTVSSGGGGQGGGGQGGGGQDIQMTQSPSSLSASVGDRVTITCRASQDISNYLNWYQQKPGKVPKLLIYYTSRLHSGVPSRFSGSGSGTDFTLTISSLQPEDVATYYCVQYAQFPLTFGCGTKVEIKSGGGGQEVQLVESGGGLVQPGGSLKLSCAASGFTFNKYAMNWVRQAPGKGMEWVARIRSKYNNYATYYADAVKDRFTISRDDSKNTLYLQMNNLKTEDTAVYYCVRAGNFGSSYISYFAYWGQGTLVTVSSGGGGQGGGGQGGGGQQTVVTQEPSLTVSPGGTVTITCGSSTGAVTSGNYPNWIQKKPGQAPRGLIGGTKFLAPGTPARFSGSLEGGKAALTLSGVQPEDEAEYYCVLYYSNRWVFGSGTKLTVLGGGGCPPCPAPELLGGPSVFLFPPKPKDTLMISRTPEVTCVVVDVSHEEPEVKFNWYVDGVEVHNAKTKPCEEQYGSTYRCVSVLTVLHQDWLNGKEYKCKVSNKALPAPIEKTISKAKGQPREPQVYTLPPSREEMTKNQVSLTCLVKGFYPSDIAVEWESNGQPENNYKTTPPVLDSDGSFFLYSKLTVDKSRWQQGNVFSCSVMHEALHNHYTQKSLSLSPGKGGGGQGGGGQGGGGQGGGGQGGGGQGGGGQCPPCPAPELLGGPSVFLFPPKPKDTLMISRTPEVTCVVVDVSHEEPEVKFNWYVDGVEVHNAKTKPCEEQYGSTYRCVSVLTVLHQDWLNGKEYKCKVSNKALPAPIEKTISKAKGQPREPQVYTLPPSREEMTKNQVSLTCLVKGFYPSDIAVEWESNGQPENNYKTTPPVLDSDGSFFLYSKLTVDKSRWQQGNVFSCSVMHEALHNHYTQKSLSLSPGKGGGGQVQLQESGPGLVKPSETLSLTCTVSGGSISSSSYFWGWIRQPPGKCLEWIGNIYYSGSSNYNPSLKSRVTISVDTSKNQFSLKLSSVTAADTAVYYCARLPRGDRDAFDIWGQGTMVTVSSGGGGQGGGGQGGGGQDIVMTQSPSSLSASVGDRVTITCRASQGISNYLAWYQQKPGKVPKLLIYAASTLQSGVPSRFSGSGSGTDFTLTISSLQPEDFATYYCQQSYSTPFTFGCGTKVEIKSGGGGQEVQLVESGGGLVQPGGSLKLSCAASGFTFNKYAMNWVRQAPGKGMEWVARIRSKYNNYATYYADAVKDRFTISRDDSKNTLYLQMNNLKTEDTAVYYCVRAGNFGSSYISYFAYWGQGTLVTVSSGGGGQGGGGQGGGGQQTVVTQEPSLTVSPGGTVTITCGSSTGAVTSGNYPNWIQKKPGQAPRGLIGGTKFLAPGTPARFSGSLEGGKAALTLSGVQPEDEAEYYCVLYYSNRWVFGSGTKLTVL	–
